# Laboratory results reported in the supplement of paper PMC10849652.
# By UniProt entry, the sequences of proteins in these tests, tags left out. Where a name states a change or a piece, a line headed by the entry shows the natural chain unless it says otherwise.
# UniProt Q53GQ0: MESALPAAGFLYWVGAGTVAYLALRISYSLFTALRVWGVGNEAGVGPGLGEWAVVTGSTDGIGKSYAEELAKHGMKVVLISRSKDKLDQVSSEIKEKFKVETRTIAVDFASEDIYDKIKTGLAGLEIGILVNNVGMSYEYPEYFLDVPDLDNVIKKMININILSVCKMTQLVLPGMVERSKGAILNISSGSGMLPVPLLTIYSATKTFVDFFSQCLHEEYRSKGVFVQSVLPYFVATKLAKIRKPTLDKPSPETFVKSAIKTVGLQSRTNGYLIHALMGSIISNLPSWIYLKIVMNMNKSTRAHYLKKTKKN
# UniProt P82970: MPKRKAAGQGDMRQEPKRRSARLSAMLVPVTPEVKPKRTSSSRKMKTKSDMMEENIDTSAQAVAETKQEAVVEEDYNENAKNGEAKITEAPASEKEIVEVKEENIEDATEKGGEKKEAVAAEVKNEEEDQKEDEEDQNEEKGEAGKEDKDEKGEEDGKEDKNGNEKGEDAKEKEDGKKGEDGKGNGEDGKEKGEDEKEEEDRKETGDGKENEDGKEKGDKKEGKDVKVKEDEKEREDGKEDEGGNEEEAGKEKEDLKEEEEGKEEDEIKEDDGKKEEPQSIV
# UniProt Q9P0W2: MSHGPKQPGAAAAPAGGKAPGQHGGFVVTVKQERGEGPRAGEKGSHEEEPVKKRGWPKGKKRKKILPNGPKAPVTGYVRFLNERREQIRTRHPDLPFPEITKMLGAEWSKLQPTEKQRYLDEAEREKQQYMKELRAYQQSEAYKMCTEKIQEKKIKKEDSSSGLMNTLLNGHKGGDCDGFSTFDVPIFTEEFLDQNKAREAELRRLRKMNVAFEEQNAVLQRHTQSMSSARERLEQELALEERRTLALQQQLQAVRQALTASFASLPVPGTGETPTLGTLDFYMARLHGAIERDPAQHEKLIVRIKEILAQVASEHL
# UniProt O75330: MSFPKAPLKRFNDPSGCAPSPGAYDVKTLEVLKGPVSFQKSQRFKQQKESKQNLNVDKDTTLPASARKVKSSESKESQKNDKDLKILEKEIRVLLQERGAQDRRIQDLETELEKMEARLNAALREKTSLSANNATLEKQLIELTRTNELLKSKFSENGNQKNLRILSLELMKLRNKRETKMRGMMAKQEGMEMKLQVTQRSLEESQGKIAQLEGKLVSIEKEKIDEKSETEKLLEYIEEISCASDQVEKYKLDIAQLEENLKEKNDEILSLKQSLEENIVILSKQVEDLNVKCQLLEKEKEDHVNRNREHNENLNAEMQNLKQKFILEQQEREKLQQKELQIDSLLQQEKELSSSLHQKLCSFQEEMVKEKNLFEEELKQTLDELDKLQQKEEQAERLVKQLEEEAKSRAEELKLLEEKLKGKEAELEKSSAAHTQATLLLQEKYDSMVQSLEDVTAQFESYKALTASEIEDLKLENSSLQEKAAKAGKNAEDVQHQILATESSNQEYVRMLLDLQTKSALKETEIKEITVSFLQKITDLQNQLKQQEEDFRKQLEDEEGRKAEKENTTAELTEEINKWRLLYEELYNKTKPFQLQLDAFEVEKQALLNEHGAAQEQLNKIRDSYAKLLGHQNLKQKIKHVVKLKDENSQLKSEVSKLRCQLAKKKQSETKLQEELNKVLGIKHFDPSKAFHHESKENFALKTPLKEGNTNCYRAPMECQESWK
# UniProt P07910: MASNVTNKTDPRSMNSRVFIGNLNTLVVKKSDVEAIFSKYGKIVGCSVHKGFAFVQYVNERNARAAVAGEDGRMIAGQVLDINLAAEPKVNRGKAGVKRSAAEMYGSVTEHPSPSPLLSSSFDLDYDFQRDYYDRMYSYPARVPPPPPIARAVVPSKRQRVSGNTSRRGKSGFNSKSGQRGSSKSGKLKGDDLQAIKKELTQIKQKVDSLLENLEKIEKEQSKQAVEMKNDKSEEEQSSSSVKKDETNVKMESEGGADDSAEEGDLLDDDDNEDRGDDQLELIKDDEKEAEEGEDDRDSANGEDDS
# UniProt P17482: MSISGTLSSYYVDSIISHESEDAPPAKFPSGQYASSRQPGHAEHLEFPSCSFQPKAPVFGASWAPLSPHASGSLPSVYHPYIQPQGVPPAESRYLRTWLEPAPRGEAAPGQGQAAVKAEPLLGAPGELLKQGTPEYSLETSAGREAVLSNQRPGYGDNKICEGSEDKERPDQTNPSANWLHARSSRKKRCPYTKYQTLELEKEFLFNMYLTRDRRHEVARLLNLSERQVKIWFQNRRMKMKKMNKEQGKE
# UniProt P11021: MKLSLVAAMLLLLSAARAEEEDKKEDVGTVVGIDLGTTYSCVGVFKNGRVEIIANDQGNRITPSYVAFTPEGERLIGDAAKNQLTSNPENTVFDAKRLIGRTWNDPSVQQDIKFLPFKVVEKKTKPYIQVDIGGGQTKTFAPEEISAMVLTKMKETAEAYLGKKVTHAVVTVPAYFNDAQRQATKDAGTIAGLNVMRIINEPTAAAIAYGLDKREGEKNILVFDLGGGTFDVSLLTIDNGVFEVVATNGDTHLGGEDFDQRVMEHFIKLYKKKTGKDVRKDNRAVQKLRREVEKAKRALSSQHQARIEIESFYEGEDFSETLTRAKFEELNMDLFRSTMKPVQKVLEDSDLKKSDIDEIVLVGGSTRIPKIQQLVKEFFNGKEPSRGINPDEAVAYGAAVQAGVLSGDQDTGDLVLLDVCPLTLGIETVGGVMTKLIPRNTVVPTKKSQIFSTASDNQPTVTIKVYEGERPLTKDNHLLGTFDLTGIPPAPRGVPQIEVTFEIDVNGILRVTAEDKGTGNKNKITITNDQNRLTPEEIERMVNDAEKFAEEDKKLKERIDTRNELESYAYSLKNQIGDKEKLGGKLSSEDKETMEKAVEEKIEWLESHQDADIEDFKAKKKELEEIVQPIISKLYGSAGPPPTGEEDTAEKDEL
# The other results are listed elsewhere or left out.
# Assays:
# Test in all cases: log2 fold change, soluble protein after heating vs DMSO (PISA); higher = thermal stabilisation; K562 lysate, 10 uM; active = over 0.2 and 3.5 SD of the protein, either way, in both replicates (recomputed)
# lapatinib = compound: CS(=O)(=O)CCNCc1ccc(-c2ccc3ncnc(Nc4ccc(OCc5cccc(F)c5)c(Cl)c4)c3c2)o1 [lapatinib]
# Outline: (§1)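 To prepare the extract, K562 pellets were dounce-homogenised in PBS pH 7.4 with 1 mM MgCl2, giving crude material at 1 mg/mL protein. This was treated with 10 μM compound for 30 min, then heated in aliquots for 3 min over 48°C-58°C before pooling and addition of NP-40 to 0.5% at 4°C. Centrifugation at 21,000xg for 90 min left soluble protein in the supernatant, which TMTpro 16plex LC-MS/MS quantified with equalised channel sums. Results are log-two fold changes in thermal stability compared with solvent controls, from duplicates.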
# pictilisib = compound: CS(=O)(=O)N1CCN(Cc2cc3nc(-c4cccc5[nH]ncc45)nc(N4CCOCC4)c3s2)CC1 [pictilisib]
# Outline: as §1
# crizotinib = compound: C[C@@H](Oc1cc(-c2cnn(C3CCNCC3)c2)cnc1N)c1c(Cl)ccc(F)c1Cl [crizotinib]
# Outline: as §1
# [1] = compound: C[C@H](C1=CC=C(C=C1)C(=O)NC2=C3C=CNC3=NC=C2)N
# Outline: as §1
# duvelisib = compound: C[C@H](Nc1ncnc2nc[nH]c12)c1cc2cccc(Cl)c2c(=O)n1-c1ccccc1 [duvelisib]
# Outline: as §1
# gandotinib = compound: Cc1cc(Nc2cc(CN3CCOCC3)c3nc(C)c(Cc4ccc(Cl)cc4F)n3n2)n[nH]1 [gandotinib]
# Outline: as §1
# tozasertib = compound: Cc1cc(Nc2cc(N3CCN(C)CC3)nc(Sc3ccc(NC(=O)C4CC4)cc3)n2)n[nH]1 [tozasertib]
# Outline: as §1
# doramapimod = compound: Cc1ccc(-n2nc(C(C)(C)C)cc2NC(=O)Nc2ccc(OCCN3CCOCC3)c3ccccc23)cc1 [doramapimod]
# Outline: as §1
# bafetinib = compound: Cc1ccc(NC(=O)c2ccc(CN3CC[C@H](N(C)C)C3)c(C(F)(F)F)c2)cc1Nc1nccc(-c2cncnc2)n1 [bafetinib]
# Outline: as §1
# [2] = compound: Cc1cccc(CC(=O)N2CCc3c2ccc(-c2cn(C)c4ncnc(N)c24)c3F)n1
# Outline: as §1
# nilotinib = compound: Cc1cn(-c2cc(NC(=O)c3ccc(C)c(Nc4nccc(-c5cccnc5)n4)c3)cc(C(F)(F)F)c2)cn1 [nilotinib]
# Outline: as §1
# [3] = compound: Cc1nc(Nc2n[nH]c3c2CN(C(=O)N[C@H](CN(C)C)c2ccccc2)C3(C)C)c2sccc2n1
# Outline: as §1
# dasatinib = compound: Cc1nc(Nc2ncc(C(=O)Nc3c(C)cccc3Cl)s2)cc(N2CCN(CCO)CC2)n1 [dasatinib]
# Outline: as §1
# [4] = compound: Cc1ncc(-c2ccnc(Nc3ccc(S(C)(=O)=O)cc3)n2)n1C(C)C
# Outline: as §1
# [5] = compound: Cn1cc(-c2ccc3c(c2)CCN3C(=O)Cc2cccc(C(F)(F)F)c2)c2c(N)ncnc21
# Outline: as §1
# quisinostat = compound: Cn1cc(CNCC2CCN(c3ncc(C(=O)NO)cn3)CC2)c2ccccc21 [quisinostat]
# Outline: as §1
# tipifarnib = compound: Cn1cncc1[C@@](N)(c1ccc(Cl)cc1)c1ccc2c(c1)c(-c1cccc(Cl)c1)cc(=O)n2C [tipifarnib]
# Outline: as §1
# [6] = compound: NC(=O)Nc1cc(-c2cccc(F)c2)sc1C(=O)N[C@H]1CCCNC1
# Outline: as §1
# [7] = compound: NC(=O)c1cnc(N[C@@H]2CCCC[C@@H]2N)nc1Nc1cccc(-n2nccn2)c1
# Outline: as §1
# [8] = compound: NC1(c2ccc(-c3nc4ccn5c(=O)[nH]nc5c4cc3-c3ccccc3)cc2)CCC1
# Outline: as §1
Target,log2 fold change (lapatinib),log2 fold change (pictilisib),log2 fold change (crizotinib),log2 fold change [1],log2 fold change (duvelisib),log2 fold change (gandotinib),log2 fold change (tozasertib),log2 fold change (doramapimod),log2 fold change (bafetinib),log2 fold change [2],log2 fold change (nilotinib),log2 fold change [3],log2 fold change (dasatinib),log2 fold change [4],log2 fold change [5],log2 fold change (quisinostat),log2 fold change (tipifarnib),log2 fold change [6],log2 fold change [7],log2 fold change [8]
HSD17B12 (UniProt Q53GQ0),active: 0.31,inactive: -0.034,inactive: -0.025,inactive: -0.158,inactive: -0.08,active: 0.41,inactive: 0.011,inactive: 0.047,inactive: -0.019,inactive: 0.149,inactive: -0.024,inactive: -0.04,inactive: 0.016,inactive: 0.033,inactive: 0.007,inactive: 0.073,inactive: -0.118,inactive: 0.058,inactive: 0.012,inactive: -0.045
HMGN5 (UniProt P82970),inactive: -0.058,inactive: 0.032,inactive: 0.046,inactive: 0.239,inactive: 0.018,inactive: -0.081,inactive: 0.02,inactive: -0.066,inactive: 0.013,inactive: -0.184,inactive: 0.029,inactive: 0.001,inactive: 0.03,inactive: 0.019,inactive: -0.003,inactive: 0.074,inactive: 0.04,inactive: -0.042,inactive: -0.027,inactive: -0.003
HMG20B (UniProt Q9P0W2),inactive: -0.056,inactive: 0.009,inactive: 0.003,inactive: -0.013,inactive: -0.027,inactive: -0.082,inactive: -0.103,inactive: -0.009,inactive: -0.054,inactive: -0.03,inactive: -0.01,inactive: 0.026,inactive: 0.005,inactive: 0.06,inactive: 0.021,inactive: -0.087,inactive: -0.018,inactive: 0.039,inactive: 0.049,inactive: -0.036
HMMR isoform 3 (UniProt O75330),inactive: 0.003,inactive: 0.005,inactive: 0.031,inactive: -0.009,inactive: -0.012,inactive: 0.024,inactive: 0.018,inactive: 0.021,inactive: -0.02,inactive: 0.005,inactive: -0.03,inactive: 0.02,inactive: 0.008,inactive: -0.004,inactive: 0.026,inactive: -0.009,inactive: -0.019,inactive: -0.012,inactive: 0.014,inactive: 0.03
HNRNPK isoform 2 (UniProt P61978),inactive: 0.004,inactive: 0.009,inactive: -0.015,inactive: -0.02,inactive: -0.017,inactive: 0.019,inactive: -0.02,inactive: 0.046,inactive: 0,inactive: 0.015,inactive: -0.02,inactive: -0.014,inactive: -0.011,inactive: 0.001,inactive: -0.009,inactive: -0.082,inactive: 0.018,inactive: 0,inactive: -0.011,inactive: -0.03
HNRNPC (UniProt P07910),inactive: 0.018,inactive: 0.004,inactive: -0.011,inactive: 0.171,inactive: 0.051,inactive: -0.071,inactive: -0.012,inactive: -0.021,inactive: -0.077,inactive: 0.01,inactive: -0.028,inactive: -0.034,inactive: -0.038,inactive: -0.015,inactive: 0.023,inactive: 0.016,inactive: 0.029,inactive: -0.004,inactive: -0.005,inactive: 0.008
HOXB9 (UniProt P17482),inactive: -0.001,inactive: 0,inactive: -0.156,inactive: -0.017,inactive: -0.121,inactive: 0.152,inactive: -0.112,inactive: 0.02,inactive: -0.198,inactive: -0.008,inactive: -0.014,inactive: -0.077,inactive: 0.009,inactive: 0,inactive: 0.054,inactive: -0.124,inactive: 0.002,inactive: 0.101,inactive: 0.016,inactive: -0.055
HSPA5 (UniProt P11021),inactive: -0.019,inactive: 0.018,inactive: 0.026,inactive: 0.034,inactive: 0.015,inactive: -0.077,inactive: 0.05,inactive: 0.022,inactive: 0.044,inactive: -0.079,inactive: -0.002,inactive: -0.007,inactive: -0.001,inactive: -0.003,inactive: -0.021,inactive: 0.045,inactive: 0.007,inactive: -0.044,inactive: -0.016,inactive: 0.037
